These are yes or no findings as the source states them, for the method shown.
Molecular target: low-density lipoprotein receptor-related protein 1 (LRP-1) (UniProt Q07954)
Assay: SPR; BIAcore T200; LRP-1 immobilised on a CM5 chip by amine coupling (3000 RU); 25 °C; 150 mM NaCl, 10 mM CaCl2, 50 mM Tris-HCl, 0.01% Tween-20, pH 7.5; 30 μl/min; ligands or pre-formed complexes injected; one-site binding model; triplicate; both purified

Sequences of proteins named here, by UniProt entry; tags and fusion partners are left off. A change or cut given only in a name is not applied to a line headed by its entry. Residues count along the entry.
UniProt Q07954: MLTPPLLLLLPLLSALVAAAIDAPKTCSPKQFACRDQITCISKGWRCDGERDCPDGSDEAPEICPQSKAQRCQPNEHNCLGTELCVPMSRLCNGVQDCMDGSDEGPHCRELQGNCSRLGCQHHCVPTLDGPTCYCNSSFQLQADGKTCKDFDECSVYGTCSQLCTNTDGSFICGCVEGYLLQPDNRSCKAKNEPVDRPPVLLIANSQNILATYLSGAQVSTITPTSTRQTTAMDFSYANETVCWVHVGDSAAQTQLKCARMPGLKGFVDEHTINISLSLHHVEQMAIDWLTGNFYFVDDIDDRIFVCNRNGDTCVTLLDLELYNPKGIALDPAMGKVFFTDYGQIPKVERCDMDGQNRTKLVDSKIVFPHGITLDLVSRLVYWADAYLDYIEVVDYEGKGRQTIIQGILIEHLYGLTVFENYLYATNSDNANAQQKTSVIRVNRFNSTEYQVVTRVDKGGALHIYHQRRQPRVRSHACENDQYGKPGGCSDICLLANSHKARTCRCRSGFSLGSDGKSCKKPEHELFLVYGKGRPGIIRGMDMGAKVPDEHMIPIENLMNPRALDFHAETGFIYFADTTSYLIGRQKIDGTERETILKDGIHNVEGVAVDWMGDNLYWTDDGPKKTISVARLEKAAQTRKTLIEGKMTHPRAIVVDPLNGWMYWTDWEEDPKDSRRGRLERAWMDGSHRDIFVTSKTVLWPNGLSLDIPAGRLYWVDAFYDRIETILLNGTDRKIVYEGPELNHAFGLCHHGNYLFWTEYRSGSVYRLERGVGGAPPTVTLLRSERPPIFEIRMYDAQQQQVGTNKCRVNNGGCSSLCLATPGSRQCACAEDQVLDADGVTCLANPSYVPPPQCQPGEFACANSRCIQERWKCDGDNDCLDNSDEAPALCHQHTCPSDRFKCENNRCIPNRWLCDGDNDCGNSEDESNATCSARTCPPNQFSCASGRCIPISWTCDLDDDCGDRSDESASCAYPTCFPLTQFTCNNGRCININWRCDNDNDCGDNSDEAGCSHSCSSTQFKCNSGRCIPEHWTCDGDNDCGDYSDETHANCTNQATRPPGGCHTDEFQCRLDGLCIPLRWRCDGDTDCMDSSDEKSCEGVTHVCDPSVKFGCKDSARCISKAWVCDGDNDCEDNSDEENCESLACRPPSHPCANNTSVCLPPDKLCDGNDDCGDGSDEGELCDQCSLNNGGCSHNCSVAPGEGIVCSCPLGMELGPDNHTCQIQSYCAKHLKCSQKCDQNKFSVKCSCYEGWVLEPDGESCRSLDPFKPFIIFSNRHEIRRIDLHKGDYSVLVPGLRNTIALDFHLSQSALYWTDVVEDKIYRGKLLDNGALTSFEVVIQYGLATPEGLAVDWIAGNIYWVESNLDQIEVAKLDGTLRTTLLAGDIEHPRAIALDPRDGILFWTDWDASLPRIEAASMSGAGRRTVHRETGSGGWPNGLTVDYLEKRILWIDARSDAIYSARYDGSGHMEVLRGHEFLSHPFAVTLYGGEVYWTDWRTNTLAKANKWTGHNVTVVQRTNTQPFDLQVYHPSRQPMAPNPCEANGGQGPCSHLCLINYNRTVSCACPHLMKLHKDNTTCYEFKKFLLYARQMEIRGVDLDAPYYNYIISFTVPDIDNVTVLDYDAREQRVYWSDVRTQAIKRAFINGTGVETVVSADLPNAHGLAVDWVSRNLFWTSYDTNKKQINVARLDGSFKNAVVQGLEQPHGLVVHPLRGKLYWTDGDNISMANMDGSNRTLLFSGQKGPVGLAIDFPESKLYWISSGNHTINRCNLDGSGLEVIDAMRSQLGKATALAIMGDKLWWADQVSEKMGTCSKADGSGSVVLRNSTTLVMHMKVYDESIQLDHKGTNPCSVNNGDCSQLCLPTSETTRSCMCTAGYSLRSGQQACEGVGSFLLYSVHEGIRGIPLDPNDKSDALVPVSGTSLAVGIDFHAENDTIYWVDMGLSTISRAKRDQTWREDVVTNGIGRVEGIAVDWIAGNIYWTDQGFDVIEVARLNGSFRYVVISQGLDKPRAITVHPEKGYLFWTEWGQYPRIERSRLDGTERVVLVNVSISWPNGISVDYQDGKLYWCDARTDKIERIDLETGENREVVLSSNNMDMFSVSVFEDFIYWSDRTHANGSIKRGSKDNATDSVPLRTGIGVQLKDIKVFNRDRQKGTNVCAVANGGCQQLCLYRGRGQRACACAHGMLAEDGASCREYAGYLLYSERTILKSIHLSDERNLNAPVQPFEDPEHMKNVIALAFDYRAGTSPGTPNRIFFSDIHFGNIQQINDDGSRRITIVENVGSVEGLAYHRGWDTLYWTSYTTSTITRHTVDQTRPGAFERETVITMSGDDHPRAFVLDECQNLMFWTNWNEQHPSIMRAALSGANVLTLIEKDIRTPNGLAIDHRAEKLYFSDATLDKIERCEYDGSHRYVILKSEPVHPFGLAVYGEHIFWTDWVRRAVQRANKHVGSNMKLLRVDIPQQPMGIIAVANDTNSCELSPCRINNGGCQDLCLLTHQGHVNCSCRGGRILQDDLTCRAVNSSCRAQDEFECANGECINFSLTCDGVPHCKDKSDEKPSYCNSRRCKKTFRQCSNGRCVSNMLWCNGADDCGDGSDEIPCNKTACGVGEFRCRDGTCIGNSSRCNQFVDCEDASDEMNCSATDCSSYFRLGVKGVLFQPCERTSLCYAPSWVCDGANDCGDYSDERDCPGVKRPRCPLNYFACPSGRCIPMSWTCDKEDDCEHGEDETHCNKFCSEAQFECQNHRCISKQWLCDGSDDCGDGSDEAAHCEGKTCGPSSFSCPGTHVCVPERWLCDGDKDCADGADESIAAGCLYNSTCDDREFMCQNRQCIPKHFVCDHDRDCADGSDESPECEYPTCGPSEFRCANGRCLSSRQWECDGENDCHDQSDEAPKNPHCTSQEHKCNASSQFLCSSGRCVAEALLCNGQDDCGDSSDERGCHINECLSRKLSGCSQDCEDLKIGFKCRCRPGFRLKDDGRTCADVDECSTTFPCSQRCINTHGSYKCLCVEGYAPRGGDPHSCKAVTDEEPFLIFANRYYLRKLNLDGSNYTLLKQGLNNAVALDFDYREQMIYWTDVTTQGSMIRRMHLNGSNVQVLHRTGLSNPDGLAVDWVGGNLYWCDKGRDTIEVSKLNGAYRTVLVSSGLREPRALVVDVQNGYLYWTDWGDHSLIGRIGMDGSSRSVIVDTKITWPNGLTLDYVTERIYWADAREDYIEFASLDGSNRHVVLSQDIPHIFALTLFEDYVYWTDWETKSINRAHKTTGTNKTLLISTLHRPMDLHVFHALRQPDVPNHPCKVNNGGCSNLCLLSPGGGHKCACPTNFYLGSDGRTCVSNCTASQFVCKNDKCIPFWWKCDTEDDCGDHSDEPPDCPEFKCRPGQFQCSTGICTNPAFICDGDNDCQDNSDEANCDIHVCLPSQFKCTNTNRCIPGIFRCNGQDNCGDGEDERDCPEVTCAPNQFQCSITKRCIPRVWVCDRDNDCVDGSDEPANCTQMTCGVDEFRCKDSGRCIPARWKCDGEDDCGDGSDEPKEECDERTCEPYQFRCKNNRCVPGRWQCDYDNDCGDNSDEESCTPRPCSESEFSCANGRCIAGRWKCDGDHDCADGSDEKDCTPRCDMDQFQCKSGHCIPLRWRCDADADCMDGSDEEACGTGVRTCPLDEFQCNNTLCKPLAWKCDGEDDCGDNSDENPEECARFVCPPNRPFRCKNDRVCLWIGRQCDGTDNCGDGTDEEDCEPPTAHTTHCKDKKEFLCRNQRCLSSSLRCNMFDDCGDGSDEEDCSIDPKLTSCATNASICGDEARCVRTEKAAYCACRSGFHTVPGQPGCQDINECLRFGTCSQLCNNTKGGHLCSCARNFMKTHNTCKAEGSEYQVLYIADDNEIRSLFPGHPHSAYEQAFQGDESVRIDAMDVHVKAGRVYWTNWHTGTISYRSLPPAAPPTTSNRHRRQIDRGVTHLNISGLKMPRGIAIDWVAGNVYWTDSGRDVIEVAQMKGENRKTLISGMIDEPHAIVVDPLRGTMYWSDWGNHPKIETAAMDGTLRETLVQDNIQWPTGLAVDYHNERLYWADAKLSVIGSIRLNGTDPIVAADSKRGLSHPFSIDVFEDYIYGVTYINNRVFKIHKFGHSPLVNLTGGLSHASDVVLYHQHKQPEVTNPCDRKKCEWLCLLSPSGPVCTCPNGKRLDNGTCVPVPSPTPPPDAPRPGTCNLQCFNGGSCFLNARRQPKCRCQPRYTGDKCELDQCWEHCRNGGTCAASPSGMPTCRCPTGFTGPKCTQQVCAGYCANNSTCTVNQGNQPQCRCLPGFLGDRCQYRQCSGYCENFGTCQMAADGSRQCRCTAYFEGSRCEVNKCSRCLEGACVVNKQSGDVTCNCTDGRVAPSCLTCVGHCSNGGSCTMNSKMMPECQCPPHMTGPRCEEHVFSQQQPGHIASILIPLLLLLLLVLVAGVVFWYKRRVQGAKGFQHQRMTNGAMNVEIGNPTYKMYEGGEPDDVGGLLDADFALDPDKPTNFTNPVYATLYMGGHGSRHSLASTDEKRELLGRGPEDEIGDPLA
UniProt P02769, residues 25-607: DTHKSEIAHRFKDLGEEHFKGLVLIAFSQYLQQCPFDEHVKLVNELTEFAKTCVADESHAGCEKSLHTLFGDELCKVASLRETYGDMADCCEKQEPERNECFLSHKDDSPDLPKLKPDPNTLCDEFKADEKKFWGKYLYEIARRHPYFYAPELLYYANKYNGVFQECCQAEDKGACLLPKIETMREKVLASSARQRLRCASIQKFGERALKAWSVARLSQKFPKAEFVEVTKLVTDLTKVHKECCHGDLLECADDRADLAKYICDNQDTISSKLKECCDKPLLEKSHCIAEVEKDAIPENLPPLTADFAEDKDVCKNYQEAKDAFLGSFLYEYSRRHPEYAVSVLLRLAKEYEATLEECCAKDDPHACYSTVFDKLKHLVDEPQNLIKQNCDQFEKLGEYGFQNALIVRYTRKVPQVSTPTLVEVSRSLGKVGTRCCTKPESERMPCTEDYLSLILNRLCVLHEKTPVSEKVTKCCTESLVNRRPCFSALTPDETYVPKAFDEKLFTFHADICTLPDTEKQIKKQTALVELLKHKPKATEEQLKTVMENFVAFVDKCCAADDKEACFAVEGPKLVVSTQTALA

binding: no binding (tested: up to 2 μM)
Substance: BSA (from UniProt P02769 25-607)

From PMC7374751
